Results: paper PMC11339399
Results are given in words; binding and its absence hold for the method and conditions named. In cells and extracts the contact can be indirect. Here binding means that the protein was enriched with, or labelled near, the bait; the list need not be complete.

The chains behind the UniProt entries cited, without tags or fusion partners.
UniProt P37802: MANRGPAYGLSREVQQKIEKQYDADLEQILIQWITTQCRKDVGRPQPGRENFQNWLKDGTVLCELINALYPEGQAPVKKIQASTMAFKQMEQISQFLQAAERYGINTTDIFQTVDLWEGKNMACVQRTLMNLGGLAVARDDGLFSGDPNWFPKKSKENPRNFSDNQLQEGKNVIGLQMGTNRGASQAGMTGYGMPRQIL
UniProt P07355: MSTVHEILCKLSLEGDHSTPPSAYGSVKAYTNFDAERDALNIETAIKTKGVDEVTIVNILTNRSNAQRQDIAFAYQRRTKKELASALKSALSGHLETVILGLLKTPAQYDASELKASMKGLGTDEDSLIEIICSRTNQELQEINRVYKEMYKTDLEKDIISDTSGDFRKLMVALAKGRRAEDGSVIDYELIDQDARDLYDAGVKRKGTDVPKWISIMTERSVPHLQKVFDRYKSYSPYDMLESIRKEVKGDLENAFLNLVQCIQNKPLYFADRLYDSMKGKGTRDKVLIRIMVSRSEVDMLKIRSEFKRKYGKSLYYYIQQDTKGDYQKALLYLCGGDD
UniProt P16402: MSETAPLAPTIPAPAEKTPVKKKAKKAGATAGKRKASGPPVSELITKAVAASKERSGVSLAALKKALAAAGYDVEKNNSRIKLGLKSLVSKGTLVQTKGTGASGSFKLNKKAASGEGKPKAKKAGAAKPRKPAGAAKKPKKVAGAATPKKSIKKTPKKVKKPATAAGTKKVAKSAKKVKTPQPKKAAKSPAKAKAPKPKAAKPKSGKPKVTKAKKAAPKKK
UniProt P08238: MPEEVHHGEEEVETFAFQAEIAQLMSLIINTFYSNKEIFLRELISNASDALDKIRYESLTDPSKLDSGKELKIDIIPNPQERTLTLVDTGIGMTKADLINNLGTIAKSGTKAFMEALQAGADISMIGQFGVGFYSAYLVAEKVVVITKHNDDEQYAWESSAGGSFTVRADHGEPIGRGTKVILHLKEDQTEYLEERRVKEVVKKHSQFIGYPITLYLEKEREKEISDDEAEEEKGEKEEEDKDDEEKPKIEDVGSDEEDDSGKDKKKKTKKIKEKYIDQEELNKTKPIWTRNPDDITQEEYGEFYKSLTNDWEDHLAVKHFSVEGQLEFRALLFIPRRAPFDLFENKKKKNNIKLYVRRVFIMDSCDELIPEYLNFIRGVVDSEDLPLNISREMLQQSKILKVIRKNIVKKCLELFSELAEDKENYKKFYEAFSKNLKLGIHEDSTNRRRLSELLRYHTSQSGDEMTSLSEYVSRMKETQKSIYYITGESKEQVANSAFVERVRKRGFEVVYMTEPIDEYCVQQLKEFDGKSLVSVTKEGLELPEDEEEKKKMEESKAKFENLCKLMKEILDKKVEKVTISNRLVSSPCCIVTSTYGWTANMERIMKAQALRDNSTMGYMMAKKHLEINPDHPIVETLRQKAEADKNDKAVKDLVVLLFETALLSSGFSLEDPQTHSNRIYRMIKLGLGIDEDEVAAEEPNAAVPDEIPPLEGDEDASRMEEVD
UniProt P67809: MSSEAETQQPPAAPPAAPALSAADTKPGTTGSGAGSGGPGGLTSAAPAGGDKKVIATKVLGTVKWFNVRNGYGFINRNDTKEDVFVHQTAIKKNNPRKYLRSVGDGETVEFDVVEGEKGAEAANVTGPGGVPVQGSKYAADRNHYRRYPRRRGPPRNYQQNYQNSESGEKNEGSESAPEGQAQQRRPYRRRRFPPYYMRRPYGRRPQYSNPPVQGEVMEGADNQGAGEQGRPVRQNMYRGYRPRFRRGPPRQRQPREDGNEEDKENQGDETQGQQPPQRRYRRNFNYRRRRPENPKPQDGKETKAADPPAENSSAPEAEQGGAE

Biological target: TAGLN2 (human) (UniProt P37802)
Assay: affinity purification with mass spectrometry; Co-IP (Pierce Co-IP kit, antibody coupled to resin, cell lysate overnight at 4 °C) followed by LC-MS/MS to find TAGLN2-binding candidates

Row | binding | Substance
1 | binds | ANXA2 (from UniProt P07355 1-339)
2 | binds | HIST1H1D (from UniProt P16402 1-221)
3 | binds | Hsp90AB1 (from UniProt P08238 1-724)
4 | binds | YBX1 (from UniProt P67809 1-324)
